# PubChem BioAssay (NCATS)
# Values joined by “and” are separate entries in the source; they are usually repeats but may differ in a detail not shown here. Equal values may be shown once. This list was built around the results that the source calls inconclusive (neither active nor inactive); the mix of calls is not that of the screen. For part of these data: Potencies of inconclusive entries are doubtful fits and often do not repeat. Active and inactive are the calls of the source. Unless noted, calls follow the shape of the dose curve; as a rule, active = well fitted curve in the direction sought with a large enough effect; inconclusive = small, poorly fitted or top-dose-only effect, or another doubt; inactive = no such curve, though single readings can be large; an effect the other way counts as inactive or inconclusive.
# What was measured:
# [1] = Cytotoxicity counterscreen for NFkB agonists and antagonists (AID 624476)
# [2] = qHTS Assay for Identification of Small Molecule Antagonists for NFkB Signaling Pathway. (AID 624479; calls by dose curve;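 also: pathway stimulated with TNF alpha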)
# [3] = qHTS of pediatric cancer cell lines to identify multiple opportunities for drug repurposing: Primary screen for TC32 cells (AID 1347089); also: nearly all actives have a fitted effect of over 60% in size
# Summary of the method: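 TC32 cells, 500-1,000/well in growth medium, compound-treated 48 h at 37 °C; viability from CellTiter-Glo luminescence. Primary screen: MIPE 11-point (0.78 nM–46 µM final), NPC 8-point (0.59 nM–46 µM final); confirmatory at 11-point dilutions.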
# [4] = qHTS of pediatric cancer cell lines to identify multiple opportunities for drug repurposing: Primary screen for SJ-GBM2 cells (AID 1347091)
# Summary of the method: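 Eight- or eleven-point concentration series, 48 h treatment at 37 degrees C in growth media; readout CellTiter-Glo luminescence. Potency and efficacy were taken from the concentration-response curves.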
# [5] = qHTS of pediatric cancer cell lines to identify multiple opportunities for drug repurposing: Primary screen for NB-EBc1 cells (AID 1347095)
# Summary of the method: (§1)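 Following a 5-hour attachment period, cells at 500-1,000/well received compounds and were cultured for 48 hours. CellTiter-Glo was added and luminescence read to estimate viable, metabolically active cells.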
# [6] = Quantitative High-Throughput drug screen in 47 multiple myeloma cell lines against the NCATS MIPE library collection: H1112_PLB cell viability assay (AID 1918967; also: nearly all actives have a fitted effect of over 30% in size)
# Summary of the method: (§2)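 We plated 500 myeloma cells per well, pinned in MIPE 4.0 compounds, and incubated for 48 hours at 37C. ATP was then quantified with CellTiter-Glo, with DMSO and media-only wells defining 100% and 0%.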
# [7] = Quantitative High-Throughput drug screen in 47 multiple myeloma cell lines against the NCATS MIPE library collection: OPM2_DSMZ cell viability assay (AID 1919872); also: nearly all actives have a fitted effect of over 30% in size
# Summary of the method: as §2
# [8] = Quantitative High-Throughput drug screen in 47 multiple myeloma cell lines against the NCATS MIPE library collection: KMS28BM_JCRB cell viability assay (AID 1919874); also: nearly all actives have a fitted effect of over 35% in size
# Summary of the method: (§3)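 MIPE 4.0 approved/investigational drugs; 500 cells/well; 48 h 37 °C humidified 5% CO2; CTG luminescence readout; DMSO = 100%, media = 0% viability.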
# [9] = qHTS for identification of novel therapeutic agents for treatment of microphthalmiaassociated transcription factor (MiT) renal cell carcinoma (RCC) (AID 1963991; calls by dose curve); details: TFE3-RCC UOK109 viability, CellTiter-Glo, 48 h; active = Z-AUC below -0.8 in all three lines
# Summary of the method: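 Curves over 11 concentrations were fitted to CellTiter-Glo luminescence, scaled between empty wells (0%) and DMSO (100%) viability. Cells were UOK109, UOK124 and UOK145 TFE3-fusion RCC lines at 500/well, exposed 48 hours at 37 C.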
# [10] = test system: MCC-26; assay: qHTS assay to identify novel small-molecules to repurpose for Merkel cell carcinoma treatment (AID 1296009); details: MCC and control cell lines, CellTiter-Glo viability, 72 h; series mostly up to 46 µM; also: nearly all actives have a fitted effect of over 60% in size
# Summary of the method: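 qHTS format: cells treated with library compounds in DMSO across 8 (NPC) or 11 (MIPE) concentrations. Readout after 72 hr at 37 degree celsius was CellTiter-Glo luminescence.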
# [11] = qHTS of pediatric cancer cell lines to identify multiple opportunities for drug repurposing: Primary screen for NB1643 cells (AID 1347099); also: nearly all actives have a fitted effect of over 50% in size
# Summary of the method: as §1
# [12] = qHTS of pediatric cancer cell lines to identify multiple opportunities for drug repurposing: Primary screen for control Hh wild type fibroblast cells (AID 1347106); also: nearly all actives have a fitted effect of over 55% in size
# Summary of the method: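 Viability after 48 h compound treatment at 37C, 500-1,000 cells/well, read as ATP luminescence with CellTiter-Glo. Primary screens used 11-point (MIPE, 0.78 nM-46 µM) or 8-point (NPC, 0.59 nM-46 µM) final concentrations; follow-up screens used 11-point dilutions.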
# [13] = Primary qHTS for inhibitors of nuclear receptor binding SET domain protein 2 (NSD2) in an isogenic RCH-ACV NSD2 p.E1099K mutant (9B) (AID 1645876); also: nearly all actives have a fitted effect of over 70% in size
# [14] = Quantitative High-Throughput drug screen in 47 multiple myeloma cell lines against the NCATS MIPE library collection: KMS27_JCRB cell viability assay (AID 1918970); details: KMS27 myeloma cells, CellTiter-Glo ATP viability, 48 h; viability (% of DMSO): at 45.8 µM (top of the series); also: nearly all actives have a fitted effect of over 30% in size
# Summary of the method: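 KMS27_JCRB myeloma cells, 500 per well, exposed 48 h at 37 C, 5% CO2 to MIPE 4.0 compounds. Viability from ATP by CellTiter-Glo luminescence, normalized to DMSO (100%) and medium-only (0%) wells.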
# [15] = Quantitative High-Throughput drug screen in 47 multiple myeloma cell lines against the NCATS MIPE library collection: MMM1_PLB cell viability assay (AID 1918976); also: nearly all actives have a fitted effect of over 35% in size
# Summary of the method: as §3
# [16] = Quantitative High-Throughput drug screen in 47 multiple myeloma cell lines against the NCATS MIPE library collection: OCIMY7_PLB cell viability assay (AID 1918987); details: OCI-MY7 myeloma viability, CellTiter-Glo ATP, 48 h; viability (% of DMSO): at 45.8 µM (top of the series); also: nearly all actives have a fitted effect of over 65% in size
# Summary of the method: as §3
# [17] = qHTS to identify inhibitors of the type 1 interferon - major histocompatibility complex class I in skeletal muscle: primary screen against the NCATS Mechanism Interrogation Plate v5.0 (MIPE) Libary (AID 1347411); details: iHSKM cells + IFN-b, HiBiT-tagged MHC-I luminescence, 24 h; series mostly up to 45.8 µM; also: nearly all actives have a fitted effect of over 65% in size
# Summary of the method: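 Luminescence from HiBiT-tagged endogenous HLA-B*08:01 served as the MHC class I read-out. CRISPR-engineered C25cl48 human myoblasts received 4.0 ng/ml IFN-beta plus compound for 24 hrs, with an 11-point, 1:3 series topping at 46 uM final.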
# [18] = qHTS of pediatric cancer cell lines to identify multiple opportunities for drug repurposing: Primary screen for MG 63 (6-TG R) cells (AID 1347105); details: MG 63 (6-TG R) viability, CellTiter-Glo, 48 h; activity change, negative = cytotoxic: at 46 µM (top of the series) unless noted; also: nearly all actives have a fitted effect of over 50% in size
# Summary of the method: as §1
# [19] = qHTS of pediatric cancer cell lines to identify multiple opportunities for drug repurposing: Primary screen for SK-N-SH cells (AID 1347098); details: SK-N-SH viability, CellTiter-Glo luminescence, 48 h; activity change, negative = cytotoxic: at 57 µM (top of the series); also: nearly all actives have a fitted effect of over 65% in size
# Summary of the method: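 Cells (500-1,000/well) rested 5 h, then received compounds for 48 h; metabolically active cells were measured by CellTiter-Glo luminescence. Final concentrations spanned up to 46 µM (MIPE, 11-point) or 0.59 nM-46 µM (NPC, 8-point) in primary screens, 11-point in follow-ups.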
# Potency is read from the fitted curve at half-maximal effect.
smiles,measurement,setting,value
Cc1cc(Nc2cc(N3CCN(C)CC3)nc(Sc3ccc(NC(=O)C4CC4)cc3)n2)n[nH]1,Potency,[1],"inconclusive: 23.5 µM [inhibitor, single point]"
same,Potency,[2],"inconclusive: 8.41 µM [inhibitor, partial curve, poor fit]"
same,Potency,[3],active: 0.93 µM
same,Potency,[4],"inconclusive: 0.235 µM [cytotoxic, full curve]"
same,Potency,[5],active: 0.935 µM
same,Potency,[6],"inconclusive: 14.8 µM [cytotoxic, partial curve]"
same,Potency,[7],active: 20.9 µM
same,Potency,[8],active: 6.62 µM
same,Potency,[9],"inconclusive: 14.8 µM [falling, partial curve]"
same,Potency,[10],"inconclusive: 20.9 µM [inhibitor, partial curve]"
Cc1cc(Nc2cc(NC(=O)c3c(Cl)cccc3Cl)ccn2)nc(N)n1,Potency,[1],"inconclusive: 33.2 µM [inhibitor, single point]"
same,Potency,[3],active: 0.93 µM
same,Potency,[11],active: 11.8 µM
same,Potency,[12],"inconclusive: 16.6 µM [cytotoxic, partial curve]"
same,Potency,[13],active: 417 nM
same,Potency,[14],active: 0.264 µM
same,Potency,[15],"inconclusive: 33.2 µM [cytotoxic, single point]"
same,Potency,[16],active: 0.59 µM
same,Potency,[7],"inconclusive: 16.6 µM [cytotoxic, partial curve, poor fit]"
same,Potency,[8],"inconclusive: 0.418 µM [cytotoxic, full curve, poor fit]"
same,Potency,[9],"inconclusive: 5.9 µM [falling, partial curve]"
same,Potency,[10],active: 26.4 µM
CC(=O)NC(C)c1ccc(Oc2ccc(OC(C)C)cc2)cc1 (configuration not stated),Potency,[4],"inconclusive: 16.6 µM [cytotoxic, partial curve]"
same,Potency,[5],"inconclusive: 11.8 µM [cytotoxic, partial curve]"
same,Potency,[11],"inconclusive: 18.7 µM [cytotoxic, partial curve]"
same,Potency,[17],"inconclusive: 84.8 µM [inhibitor, single point]"
same,Potency,[13],"inconclusive: 12100 nM [inhibitor, partial curve]"
same,Potency,[14],"inconclusive: 3.32 µM [cytotoxic, partial curve, poor fit]"
same,Potency,[16],active: 2.35 µM
same,Potency,[8],"inconclusive: 16.6 µM [cytotoxic, partial curve]"
same,Potency,[9],inconclusive: 0.372 µM
O=c1[nH]nc(Sc2ncc([N+](=O)[O-])s2)n1-c1ccc2c(c1)OCCO2,Potency,[1],"inconclusive: 33.2 µM [inhibitor, single point]"
same,Potency,[12],active: 14.8 µM
same,Potency,[7],active: 8.33 µM
same,Potency,[9],"inconclusive: 23.5 µM [falling, partial curve]"
same,Potency,[10],active: 10.5 µM
Cn1c(Nc2ccc(C(F)(F)F)cc2)nc2cc(Oc3ccnc(-c4ncc(C(F)(F)F)[nH]4)c3)ccc21,Potency,[2],active: 1.33 µM
same,Potency,[3],active: 16.5 µM
same,Potency,[5],active: 14.8 µM
same,Potency,[11],active: 11.8 µM
same,Potency,[18],"inconclusive: 11.8 µM [cytotoxic, partial curve]"
same,Potency,[12],"inconclusive: 0.662 µM [cytotoxic, full curve, poor fit]"
same,Potency,[17],"inconclusive: 0.208 µM [inhibitor, full curve]"
same,Potency,[13],active: 7.31 µM and active: 5.25 µM
same,Potency,[15],"inconclusive: 26.4 µM [cytotoxic, single point]"
same,Potency,[7],"inconclusive: 23.5 µM [cytotoxic, single point]"
same,Potency,[8],"inconclusive: 20.9 µM [cytotoxic, partial curve]"
same,Potency,[9],"inconclusive: 0.209 µM [falling, full curve]"
O=C(OCC#CCSc1nnc(-c2ccc3ccccc3c2)o1)c1cc2ccccc2s1,Potency,[1],inactive
C[C@@H]1CN(CC(=O)Nc2ccc3c(c2)Cc2cccc(-c4cc(=O)cc(N5CCOCC5)o4)c2S3)C[C@H](C)O1,Potency,[1],inactive
same,Potency,[19],"inconclusive: 24.1 µM [cytotoxic, partial curve]"
same,Potency,[11],"inconclusive: 18.7 µM [cytotoxic, single point]"
same,Potency,[18],"inconclusive: 4.69 µM [cytotoxic, full curve]"
same,Potency,[6],"inconclusive: 13.2 µM [cytotoxic, partial curve]"
same,Potency,[15],"inconclusive: 18.7 µM [cytotoxic, partial curve, poor fit]"
same,Potency,[7],"inconclusive: 20.9 µM [cytotoxic, partial curve]"
same,Potency,[8],"inconclusive: 29.6 µM [cytotoxic, single point]"

# Shown bar-delimited: entries from further up
smiles | measurement | setting | value
Cc1cc(Nc2cc(NC(=O)c3c(Cl)cccc3Cl)ccn2)nc(N)n1 | Potency | [1] | inconclusive: 33.2 µM [inhibitor, single point]
same | Potency | [3] | active: 0.93 µM
same | Potency | [11] | active: 11.8 µM
same | Potency | [12] | inconclusive: 16.6 µM [cytotoxic, partial curve]
same | Potency | [13] | active: 417 nM
same | Potency | [14] | active: 0.264 µM
same | Potency | [15] | inconclusive: 33.2 µM [cytotoxic, single point]
same | Potency | [16] | active: 0.59 µM
same | Potency | [7] | inconclusive: 16.6 µM [cytotoxic, partial curve, poor fit]
same | Potency | [8] | inconclusive: 0.418 µM [cytotoxic, full curve, poor fit]
same | Potency | [9] | inconclusive: 5.9 µM [falling, partial curve]
same | Potency | [10] | active: 26.4 µM
CC(=O)NC(C)c1ccc(Oc2ccc(OC(C)C)cc2)cc1 (configuration not stated) | Potency | [4] | inconclusive: 16.6 µM [cytotoxic, partial curve]
same | Potency | [5] | inconclusive: 11.8 µM [cytotoxic, partial curve]
same | Potency | [11] | inconclusive: 18.7 µM [cytotoxic, partial curve]
same | Potency | [17] | inconclusive: 84.8 µM [inhibitor, single point]
same | Potency | [13] | inconclusive: 12100 nM [inhibitor, partial curve]
